According to the supplement of paper PMC10849652:
The other results are listed elsewhere or left out.

Chains of the proteins cited; added tags and fusions are not shown. Lines headed by an entry give the natural chain unless they say otherwise; changes in a name come on top.
UniProt Q9BXD5: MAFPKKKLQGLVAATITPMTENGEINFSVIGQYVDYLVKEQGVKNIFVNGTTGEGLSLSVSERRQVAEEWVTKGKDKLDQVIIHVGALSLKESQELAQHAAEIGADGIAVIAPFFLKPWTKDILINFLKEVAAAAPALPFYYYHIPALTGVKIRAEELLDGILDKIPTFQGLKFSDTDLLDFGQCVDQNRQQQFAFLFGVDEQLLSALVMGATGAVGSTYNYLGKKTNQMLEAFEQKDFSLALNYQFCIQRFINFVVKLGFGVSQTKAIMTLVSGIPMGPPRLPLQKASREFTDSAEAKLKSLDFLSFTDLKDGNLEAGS
UniProt Q96IY1: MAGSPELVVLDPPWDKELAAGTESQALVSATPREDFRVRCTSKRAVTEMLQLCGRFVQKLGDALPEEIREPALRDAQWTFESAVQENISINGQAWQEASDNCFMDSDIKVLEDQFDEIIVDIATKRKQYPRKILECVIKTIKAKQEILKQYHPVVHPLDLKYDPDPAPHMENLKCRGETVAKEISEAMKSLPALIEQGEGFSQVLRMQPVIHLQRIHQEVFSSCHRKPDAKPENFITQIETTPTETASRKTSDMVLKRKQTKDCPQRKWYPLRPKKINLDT
UniProt Q9BS92: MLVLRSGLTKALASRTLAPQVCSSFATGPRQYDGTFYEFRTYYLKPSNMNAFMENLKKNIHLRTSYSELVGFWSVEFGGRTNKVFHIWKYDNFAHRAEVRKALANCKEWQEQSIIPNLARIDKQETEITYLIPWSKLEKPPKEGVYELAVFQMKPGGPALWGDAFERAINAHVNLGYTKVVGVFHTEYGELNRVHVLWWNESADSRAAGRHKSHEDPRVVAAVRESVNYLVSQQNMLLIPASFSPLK
UniProt Q9BZQ8: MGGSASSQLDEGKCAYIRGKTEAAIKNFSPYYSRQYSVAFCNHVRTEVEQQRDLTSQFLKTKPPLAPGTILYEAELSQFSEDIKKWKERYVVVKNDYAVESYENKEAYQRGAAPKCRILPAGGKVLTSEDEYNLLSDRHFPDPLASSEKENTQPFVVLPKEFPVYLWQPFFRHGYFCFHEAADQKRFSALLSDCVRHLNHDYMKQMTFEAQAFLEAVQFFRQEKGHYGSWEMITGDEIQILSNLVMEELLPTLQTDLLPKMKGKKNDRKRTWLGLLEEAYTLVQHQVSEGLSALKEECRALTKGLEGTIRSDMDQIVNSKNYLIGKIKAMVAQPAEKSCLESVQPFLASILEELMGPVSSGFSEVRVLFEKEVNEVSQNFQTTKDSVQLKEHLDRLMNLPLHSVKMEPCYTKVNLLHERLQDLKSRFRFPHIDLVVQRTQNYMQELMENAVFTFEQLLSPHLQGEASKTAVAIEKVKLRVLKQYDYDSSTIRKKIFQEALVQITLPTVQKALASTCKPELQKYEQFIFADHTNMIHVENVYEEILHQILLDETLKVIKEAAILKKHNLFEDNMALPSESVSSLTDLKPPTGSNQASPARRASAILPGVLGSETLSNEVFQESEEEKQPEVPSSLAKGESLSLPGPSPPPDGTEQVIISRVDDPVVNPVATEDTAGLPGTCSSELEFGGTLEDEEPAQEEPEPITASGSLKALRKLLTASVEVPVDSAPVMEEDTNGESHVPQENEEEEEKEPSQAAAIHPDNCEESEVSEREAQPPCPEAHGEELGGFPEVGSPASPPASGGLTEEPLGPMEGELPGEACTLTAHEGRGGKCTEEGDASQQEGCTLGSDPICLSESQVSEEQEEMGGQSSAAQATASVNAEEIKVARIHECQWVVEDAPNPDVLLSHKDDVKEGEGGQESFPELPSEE
UniProt Q9ULX3: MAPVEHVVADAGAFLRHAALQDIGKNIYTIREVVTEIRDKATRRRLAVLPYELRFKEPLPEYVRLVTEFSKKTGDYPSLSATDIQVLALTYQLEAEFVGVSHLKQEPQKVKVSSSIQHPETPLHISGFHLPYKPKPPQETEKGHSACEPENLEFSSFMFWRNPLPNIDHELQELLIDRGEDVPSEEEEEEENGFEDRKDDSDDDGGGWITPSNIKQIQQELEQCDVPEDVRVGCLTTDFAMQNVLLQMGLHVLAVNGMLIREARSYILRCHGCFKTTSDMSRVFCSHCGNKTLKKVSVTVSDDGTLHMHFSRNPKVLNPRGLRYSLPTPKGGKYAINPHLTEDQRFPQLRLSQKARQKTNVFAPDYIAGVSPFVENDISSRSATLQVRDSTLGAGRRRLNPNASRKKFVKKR
UniProt P16083: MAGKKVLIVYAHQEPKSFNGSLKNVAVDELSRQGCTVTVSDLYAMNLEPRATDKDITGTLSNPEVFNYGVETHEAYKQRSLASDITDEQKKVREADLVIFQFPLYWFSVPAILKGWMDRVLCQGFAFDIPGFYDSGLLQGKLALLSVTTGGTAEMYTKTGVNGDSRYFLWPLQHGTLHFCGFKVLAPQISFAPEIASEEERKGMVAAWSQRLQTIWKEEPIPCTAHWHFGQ
UniProt Q9H6R4: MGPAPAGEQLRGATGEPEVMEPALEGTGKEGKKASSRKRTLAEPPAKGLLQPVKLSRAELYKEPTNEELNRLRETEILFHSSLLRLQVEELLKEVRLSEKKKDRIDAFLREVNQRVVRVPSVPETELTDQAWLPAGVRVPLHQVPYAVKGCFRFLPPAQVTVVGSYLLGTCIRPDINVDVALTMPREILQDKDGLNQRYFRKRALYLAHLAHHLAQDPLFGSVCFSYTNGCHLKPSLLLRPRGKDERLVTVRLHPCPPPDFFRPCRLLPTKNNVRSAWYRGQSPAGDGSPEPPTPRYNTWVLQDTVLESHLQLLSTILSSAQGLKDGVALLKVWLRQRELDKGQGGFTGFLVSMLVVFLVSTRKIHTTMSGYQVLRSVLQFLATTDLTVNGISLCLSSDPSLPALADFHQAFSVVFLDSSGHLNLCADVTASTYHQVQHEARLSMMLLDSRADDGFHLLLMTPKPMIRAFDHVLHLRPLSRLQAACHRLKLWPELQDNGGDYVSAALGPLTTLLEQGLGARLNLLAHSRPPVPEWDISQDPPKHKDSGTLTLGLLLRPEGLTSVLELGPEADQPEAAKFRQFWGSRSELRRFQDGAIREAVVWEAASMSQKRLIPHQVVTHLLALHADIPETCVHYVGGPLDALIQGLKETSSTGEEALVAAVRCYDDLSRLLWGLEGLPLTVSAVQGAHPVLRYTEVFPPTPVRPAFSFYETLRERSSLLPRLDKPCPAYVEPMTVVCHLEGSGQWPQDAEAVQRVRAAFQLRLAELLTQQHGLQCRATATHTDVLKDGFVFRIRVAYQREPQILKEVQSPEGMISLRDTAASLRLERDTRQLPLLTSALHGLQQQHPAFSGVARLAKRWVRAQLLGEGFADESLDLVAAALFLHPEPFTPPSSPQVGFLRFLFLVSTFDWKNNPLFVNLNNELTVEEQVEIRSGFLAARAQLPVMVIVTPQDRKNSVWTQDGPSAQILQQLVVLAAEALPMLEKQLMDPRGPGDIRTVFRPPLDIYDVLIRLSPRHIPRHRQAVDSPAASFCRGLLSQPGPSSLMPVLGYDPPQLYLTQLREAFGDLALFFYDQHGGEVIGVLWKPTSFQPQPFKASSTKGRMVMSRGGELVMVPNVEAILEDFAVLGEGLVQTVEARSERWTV
UniProt P40261: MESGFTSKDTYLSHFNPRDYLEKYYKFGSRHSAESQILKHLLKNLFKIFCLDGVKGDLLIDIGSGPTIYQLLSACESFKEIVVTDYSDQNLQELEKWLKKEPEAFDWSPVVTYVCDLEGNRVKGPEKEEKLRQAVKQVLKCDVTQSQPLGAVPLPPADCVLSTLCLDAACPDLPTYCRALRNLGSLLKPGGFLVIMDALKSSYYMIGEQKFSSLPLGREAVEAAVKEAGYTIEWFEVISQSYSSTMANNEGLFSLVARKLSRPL
UniProt Q7RTP0: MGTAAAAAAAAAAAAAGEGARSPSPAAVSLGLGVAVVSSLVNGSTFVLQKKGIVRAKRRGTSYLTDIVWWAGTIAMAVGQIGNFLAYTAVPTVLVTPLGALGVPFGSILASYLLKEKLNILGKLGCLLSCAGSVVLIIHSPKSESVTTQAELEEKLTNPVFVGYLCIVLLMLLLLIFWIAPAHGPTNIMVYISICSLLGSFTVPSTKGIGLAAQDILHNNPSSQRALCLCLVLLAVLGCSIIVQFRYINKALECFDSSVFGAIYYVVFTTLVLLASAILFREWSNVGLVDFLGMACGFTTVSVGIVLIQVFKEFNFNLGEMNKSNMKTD
UniProt Q9UHY1: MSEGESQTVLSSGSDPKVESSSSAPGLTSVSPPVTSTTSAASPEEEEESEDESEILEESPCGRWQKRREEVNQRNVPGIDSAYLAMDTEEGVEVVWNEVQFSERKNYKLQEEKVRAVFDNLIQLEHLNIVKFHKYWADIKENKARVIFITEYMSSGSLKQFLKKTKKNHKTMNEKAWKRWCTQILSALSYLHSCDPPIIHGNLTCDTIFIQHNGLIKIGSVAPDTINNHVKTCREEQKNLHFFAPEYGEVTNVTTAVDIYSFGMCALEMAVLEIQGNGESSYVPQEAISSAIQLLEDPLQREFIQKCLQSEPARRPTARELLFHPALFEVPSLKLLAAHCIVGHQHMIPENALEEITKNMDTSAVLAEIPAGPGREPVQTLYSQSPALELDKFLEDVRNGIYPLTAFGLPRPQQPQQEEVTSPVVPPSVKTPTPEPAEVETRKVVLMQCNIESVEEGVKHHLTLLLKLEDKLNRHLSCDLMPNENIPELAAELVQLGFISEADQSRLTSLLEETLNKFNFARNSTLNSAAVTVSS
UniProt P48681: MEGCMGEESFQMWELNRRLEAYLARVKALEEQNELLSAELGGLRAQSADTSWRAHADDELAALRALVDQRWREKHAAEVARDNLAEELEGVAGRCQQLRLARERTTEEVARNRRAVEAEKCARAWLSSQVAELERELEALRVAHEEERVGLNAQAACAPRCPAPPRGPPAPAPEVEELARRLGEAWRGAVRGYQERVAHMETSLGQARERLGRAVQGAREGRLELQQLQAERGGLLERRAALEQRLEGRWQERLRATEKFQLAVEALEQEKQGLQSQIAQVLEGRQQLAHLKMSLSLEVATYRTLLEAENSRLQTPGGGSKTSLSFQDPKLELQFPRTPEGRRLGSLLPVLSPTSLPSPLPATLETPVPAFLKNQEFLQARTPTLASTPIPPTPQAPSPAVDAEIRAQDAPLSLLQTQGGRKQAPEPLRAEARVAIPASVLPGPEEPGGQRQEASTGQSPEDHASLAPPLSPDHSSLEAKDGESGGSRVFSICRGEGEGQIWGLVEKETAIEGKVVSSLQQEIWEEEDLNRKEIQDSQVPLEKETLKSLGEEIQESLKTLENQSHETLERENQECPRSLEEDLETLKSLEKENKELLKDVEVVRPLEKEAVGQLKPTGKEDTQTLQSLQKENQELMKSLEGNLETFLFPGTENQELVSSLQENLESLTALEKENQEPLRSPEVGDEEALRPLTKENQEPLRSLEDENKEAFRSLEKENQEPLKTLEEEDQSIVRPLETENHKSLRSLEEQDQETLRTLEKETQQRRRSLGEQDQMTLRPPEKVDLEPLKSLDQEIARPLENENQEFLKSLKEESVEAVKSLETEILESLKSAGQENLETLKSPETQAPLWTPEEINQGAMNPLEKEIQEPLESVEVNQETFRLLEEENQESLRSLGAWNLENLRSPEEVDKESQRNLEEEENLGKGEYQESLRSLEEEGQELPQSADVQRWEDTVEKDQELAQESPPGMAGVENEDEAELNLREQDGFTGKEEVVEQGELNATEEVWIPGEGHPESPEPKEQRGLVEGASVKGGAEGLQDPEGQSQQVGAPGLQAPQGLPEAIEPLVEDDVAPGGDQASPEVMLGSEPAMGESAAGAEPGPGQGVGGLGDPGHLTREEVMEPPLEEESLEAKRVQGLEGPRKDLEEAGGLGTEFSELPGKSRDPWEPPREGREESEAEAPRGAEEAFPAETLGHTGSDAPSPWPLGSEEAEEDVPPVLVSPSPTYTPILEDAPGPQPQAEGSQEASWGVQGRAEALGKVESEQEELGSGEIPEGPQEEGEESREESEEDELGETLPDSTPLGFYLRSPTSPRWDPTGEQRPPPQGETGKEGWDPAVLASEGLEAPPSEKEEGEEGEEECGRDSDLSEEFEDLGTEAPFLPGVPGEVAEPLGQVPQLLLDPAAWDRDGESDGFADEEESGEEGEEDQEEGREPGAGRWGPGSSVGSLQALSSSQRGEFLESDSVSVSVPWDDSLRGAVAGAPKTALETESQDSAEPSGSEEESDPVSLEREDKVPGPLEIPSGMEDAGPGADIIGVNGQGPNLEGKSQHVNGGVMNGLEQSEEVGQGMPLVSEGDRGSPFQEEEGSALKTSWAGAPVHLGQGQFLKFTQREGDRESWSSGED
UniProt Q9Y221: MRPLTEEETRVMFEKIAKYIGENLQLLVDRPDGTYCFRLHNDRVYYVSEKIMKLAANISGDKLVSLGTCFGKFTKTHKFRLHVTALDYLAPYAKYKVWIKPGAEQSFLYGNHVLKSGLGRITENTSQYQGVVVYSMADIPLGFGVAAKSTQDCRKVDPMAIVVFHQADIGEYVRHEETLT

Tests used:
Test in all cases: log2 fold change, soluble protein after heating vs DMSO (PISA); higher = thermal stabilisation; K562 cells, 10 uM, 30 min; active = over 0.2 and 3.5 SD of the protein, either way, in both replicates (recomputed)
[1] = compound: CC1=C(C=C(C=C1)NC(=O)C2=CC(=CC=C2)C(C)(C)C#N)NC3=CC4=C(C=C3)N=CN(C4=O)C
In short: (§1)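 K562 cells at 2×10^6 cells/mL were treated for 30 min with 10 μM compound, and aliquots were heated for 3 min over 48°C-58°C before pooling. Extraction used PBS with 0.5% NP-40 at 4°C, and soluble protein was the supernatant after 21,000xg for 90 min, measured by TMTpro 16plex LC-MS/MS with channel sums equalised. Thermal stability values, relative to control samples and from duplicates, are log2 fold changes.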

[2] = compound: CC1=CC=C(C=C1)SC2=C3C=C(SC3=CN=C2)C(=O)N
In short: as §1

[3] = compound: CC1=NC(=CC=C1)C2=C(N=C(N2)C(C)(C)C)C3=CC4=NC=CN=C4C=C3
In short: as §1

Nexturastat A = compound: CCCCN(Cc1ccc(C(=O)NO)cc1)C(=O)Nc1ccccc1 [Nexturastat A]
In short: as §1

[4] = compound: CCCS(=O)(=O)Nc1ccc(F)c(C(=O)c2c[nH]c3ncc(Cl)cc23)c1F
In short: as §1

givinostat = compound: CCN(CC)Cc1ccc2cc(COC(=O)Nc3ccc(C(=O)NO)cc3)ccc2c1 [givinostat]
In short: as §1

[5] = compound: CC1=C(C=C(C=C1)NC(=O)C2=CC(=CC=C2)N(C)C)NC(=O)C3=CC=C(C=C3)O
In short: as §1

vemurafenib = compound: CCCS(=O)(=O)Nc1ccc(F)c(C(=O)c2c[nH]c3ncc(-c4ccc(Cl)cc4)cc23)c1F [vemurafenib]
In short: as §1

[6] = compound: CCCc1cc(C)[nH]c(=O)c1CNC(=O)c1cc(-c2ccnc(N3CCN(C)CC3)c2)cc2c1cnn2C(C)C
In short: as §1

barasertib = compound: CCN(CCCOc1ccc2c(Nc3cc(CC(=O)Nc4cccc(F)c4)[nH]n3)ncnc2c1)CCOP(=O)(O)O [barasertib]
In short: as §1

Measured: log2 fold change

NLRX1 (UniProt Q86UT6)
inactive: [1] 0.111 | [2] -0.045 | [3] -0.335 | Nexturastat A -0.052 | [4] 0.087 | givinostat 0.018

NPL (UniProt Q9BXD5)
inactive: [1] 0.047 | [5] 0.237 | [2] 0.022 | [3] 0.017 | Nexturastat A -0.095 | vemurafenib -0.073 | [4] 0.009 | [6] -0.025 | givinostat 0.029 | barasertib 0.012

NME7 (UniProt Q9Y5B8)
inactive: [1] -0.008 | [5] -0.089 | [2] -0.021 | [3] 0.059 | Nexturastat A 0.024 | vemurafenib -0.037 | [4] 0.081 | [6] -0.06 | givinostat -0.202 | barasertib 0.042

Quoted from the listing (two entries):
NLRX1 (UniProt Q86UT6)
inactive: [1] 0.111 | [2] -0.045 | [3] -0.335 | Nexturastat A -0.052 | [4] 0.087 | givinostat 0.018

NPL (UniProt Q9BXD5)
inactive: [1] 0.047 | [5] 0.237 | [2] 0.022 | [3] 0.017 | Nexturastat A -0.095 | vemurafenib -0.073 | [4] 0.009 | [6] -0.025 | givinostat 0.029 | barasertib 0.012

Further records.

NSL1 (UniProt Q96IY1)
inactive: [1] 0.021 | [5] 0.001 | [2] 0.087 | [3] 0.253 | vemurafenib -0.034 | [4] 0.095 | [6] 0.044 | givinostat 0.14 | barasertib 0.03

NFAT5 isoform 5 (UniProt O94916)
inactive: [1] -0.025 | [2] -0.126 | [3] 0 | Nexturastat A 0.054 | vemurafenib -0.183 | [4] 0.171 | [6] -0.13 | givinostat 0 | barasertib -0.056

NHEJ1 (UniProt Q9H9Q4)
inactive: [1] -0.013 | [5] -0.055 | [2] 0.074 | [3] 0.066 | Nexturastat A -0.007 | vemurafenib -0.098 | [4] 0.201 | [6] -0.398 | givinostat 0.007 | barasertib -0.082

NFKB1 isoform 2 (UniProt P19838)
inactive: [1] -0.074 | [5] 0.025 | [2] -0.132 | [3] 0.002 | Nexturastat A 0.086 | vemurafenib 0.051 | [4] 0.047 | [6] 0.055 | givinostat 0.066 | barasertib -0.032

NIPSNAP3B (UniProt Q9BS92)
inactive: [1] -0.133 | [2] 0.049 | [3] 0.023 | vemurafenib 0.065 | [4] 0.016 | [6] -0.001 | givinostat -0.088 | barasertib 0.016

NIBAN1 (UniProt Q9BZQ8)
inactive: [1] 0.05 | [5] -0.036 | [2] 0.102 | [3] 0.01 | Nexturastat A 0.077 | vemurafenib 0.046 | [4] 0.083 | [6] 0.039 | givinostat 0.05 | barasertib 0.063

NOB1 (UniProt Q9ULX3)
inactive: [1] 0.039 | [5] 0.047 | [2] 0.012 | [3] 0.027 | Nexturastat A 0.034 | vemurafenib 0.055 | [4] 0.031 | [6] 0.182 | givinostat 0.055 | barasertib 0.041

NHLRC3 (UniProt Q5JS37)
inactive: [1] -0.036 | [5] 0.036 | [2] -0.096 | [3] 0.21 | Nexturastat A -0.059 | [4] -0.183 | [6] -0.064 | givinostat -0.068 | barasertib -0.118

NQO2 (UniProt P16083)
inactive: [1] -0.02 | [5] 0.018 | [2] 0.009 | [3] -0.006 | Nexturastat A -0.003 | vemurafenib -0.012 | [4] -0.044 | [6] -0.028 | givinostat -0.032 | barasertib 0.001

NEMF (UniProt O60524)
inactive: [1] 0.051 | [5] -0.043 | [2] -0.159 | [3] -0.095 | Nexturastat A 0.281 | vemurafenib -0.032 | [4] -0.031 | [6] 0.116 | givinostat 0.141 | barasertib -0.006

NOL6 (UniProt Q9H6R4)
inactive: [1] -0.14 | [5] -0.131 | [2] -0.13 | [3] -0.013 | Nexturastat A 0.149 | vemurafenib -0.31 | [4] 0 | [6] -0.07 | barasertib 0.089

NOP56 (UniProt O00567)
inactive: [1] -0.024 | [5] -0.001 | [2] -0.149 | [3] -0.136 | Nexturastat A 0.127 | vemurafenib -0.018 | [4] -0.065 | [6] 0.003 | givinostat 0.096 | barasertib -0.076

NEK7 (UniProt Q8TDX7)
inactive: [1] 0.022 | [5] 0.021 | [2] 0.013 | [3] 0.091 | Nexturastat A -0.104 | vemurafenib -0.017 | [4] 0.035 | [6] 0.027 | givinostat 0.038 | barasertib 0.021

NOP58 (UniProt Q9Y2X3)
inactive: [1] -0.055 | [5] -0.012 | [2] -0.058 | [3] -0.073 | Nexturastat A 0.161 | vemurafenib 0.046 | [4] 0.041 | [6] 0.081 | givinostat 0.072 | barasertib -0.075

NNMT (UniProt P40261)
inactive: [1] 0.038 | [2] 0.012 | [3] 0.039 | Nexturastat A -0.082 | vemurafenib 0.011 | [4] -0.001 | [6] -0.093 | givinostat -0.076 | barasertib -0.04

NIPA1 (UniProt Q7RTP0)
inactive: [1] 0.048 | [5] -0.055 | [2] -0.014 | [3] 0 | vemurafenib 0.019 | [4] -0.072 | [6] 0.083 | givinostat 0.088 | barasertib 0.048

NOSTRIN isoform 4 (UniProt Q8IVI9)
inactive: [1] 0.093 | [5] -0.053 | [6] 0.157 | givinostat 0.302

NFATC4 isoform 2 (UniProt Q14934)
inactive: [1] 0.053 | [5] -0.127 | [2] -0.607 | [3] -0.064 | Nexturastat A -0.176 | vemurafenib -0.007 | [4] -0.238 | [6] 0.238 | barasertib 0.084

NRBP1 (UniProt Q9UHY1)
inactive: [1] 0.02 | [5] 0.035 | [2] -0.008 | [3] 0.022 | Nexturastat A -0.022 | vemurafenib 0.057 | [4] -0.014 | [6] -0.02 | givinostat 0.053 | barasertib 0.025

NSFL1C isoform 5 (UniProt Q9UNZ2)
inactive: [1] 0.109 | [5] -0.008 | [2] 0.025 | [3] 0.157 | Nexturastat A -0.13 | vemurafenib 0.01 | [4] 0.053 | [6] 0.022 | givinostat -0.032 | barasertib 0.015

NES (UniProt P48681)
inactive: [1] -0.126 | [5] -0.03 | [2] 0.079 | [3] 0.02 | Nexturastat A 0.125 | vemurafenib -0.013 | [4] -0.007 | [6] 0.032 | givinostat 0.021 | barasertib 0.262

NPM3 (UniProt O75607)
inactive: [1] 0.003 | [5] -0.004 | [2] -0.005 | [3] -0.056 | vemurafenib -0.04 | [4] 0.041 | [6] -0.015 | givinostat 0.019 | barasertib -0.083

NIP7 (UniProt Q9Y221)
inactive: [1] 0.055 | [5] -0.065 | [2] -0.004 | [3] -0.101 | Nexturastat A 0.213 | vemurafenib -0.103 | [4] -0.006 | [6] -0.161 | givinostat 0.083 | barasertib -0.03

NOD1 (UniProt Q9Y239)
inactive: [1] -0.15 | [5] -0.048 | [2] -0.198 | [3] -0.076 | Nexturastat A -0.026 | [4] -0.341 | barasertib -0.018

NEURL4 (UniProt Q96JN8)
inactive: [1] -0.019 | [5] 0.492 | vemurafenib 0.001 | givinostat 0.064 | barasertib -0.178

NLRC3 isoform 2 (UniProt Q7RTR2)
inactive: [1] -0.334 | [5] 0.021 | [2] -0.197 | [3] -0.33 | Nexturastat A -0.066 | vemurafenib -0.287 | [4] -0.436 | [6] -0.384 | givinostat -0.065 | barasertib 0.092
